No constants are given. Whether binding was seen depends on the method and setting. Binding calls can cover weak binding; strength is not graded here.

Test [1] deals with HLA-A*0201 (human). The test is described as follows: competition with 150 nM fluorescent reference peptide on acid-stripped JY cells, flow cytometry; positive = 50% inhibition at 20 µg/ml or less; FIG. 1.
Test [2] deals with HLA-A*0201 (human). The test can be described thus: competition assay on acid-stripped JY cells, flow cytometry. On the technique in general: In flow cytometry, cells or beads pass a laser one at a time.

For the molecule FLSFHISNL [MUC1^264-272 (…), polypeptide of SEQ ID NO: 4], the binding result in the test with HLA-A*0201 (human) [1] and with HLA-A*0201 (human) [2] was “binds” each time.

For the molecule SLSYTNPAV [MUC1^460-468 (…), polypeptide of SEQ ID NO: 6], the binding result with HLA-A*0201 (human) [1] and with HLA-A*0201 (human) [2] was “binds” in each case.

On to LLLTVLTVV [MUC1^13-21 (…), polypeptide of SEQ ID NO: 65], for which, in the test with HLA-A*0201 (human) [2], the binding result is recorded as “binds”.

For ALGSTTPPA [MUC1^107-115 (…), polypeptide of SEQ ID NO: 66], the binding entry in the test with HLA-A*0201 (human) [2] was “binds”.

With TLAPATEPA [MUC1^79-87 (…), polypeptide of SEQ ID NO: 5], the binding result with HLA-A*0201 (human) [1] and with HLA-A*0201 (human) [2] was “binds” throughout.

(Values after patent US20050142640A1.)
